The nature of the assay: qHTS Assay for Modulators of Lamin A Splicing. The settings on record: HeLa LMNA splicing GFP/RFP minigene ratio, 48 h. A digest of the protocol:
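S3 HeLa stable clones carrying a lamin A-EGFP splicing minigene plus DsRed2 were seeded at 600 cells/well in Opti-MEM with 2% FBS, pin-dosed and incubated 48 h at 37°C. Acumen cytometry (488 nm) gave the GFP/RFP total-intensity ratio.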
(In general: In qHTS, concentration-response curves come from the screen itself.)

The mark [1] stands for this setting: measured here: RFP viability control channel.
Where [2] appears, read: measured here: GFP splicing reporter channel.

A word on the AC50: it is the midpoint of the concentration-response curve, whichever way the signal moves.

Structures are written as SMILES. The list shows a part of the results. The main result of the screen is listed elsewhere. These columns were measured beside it and carry no call. Most of these compounds were active or inconclusive in the main read-out, so they are no random draw. The note in brackets gives the kind of curve behind each potency; many fits are weak.

Consider `COc1cccc(NS(=O)(=O)c2cc(C)sc2C)c1`, for which the AC50 under setting [1] was 35.5 µM [rising, single point]. On to `COc1ccc(C(=O)COC(=O)/C=C/c2ccc(S(=O)(=O)Nc3cccc(S(N)(=O)=O)c3)cc2)cc1`, for which the AC50 under setting [2] was 5.62 µM [rising, single point]. As to `COC(=O)[C@@]1(Cc2ccc(F)cc2)[C@H]2c3cc(C(=O)N4CCCC4)n(CCc4ccc(O)c(O)c4)c3C[C@H]2CN1C(=O)c1ccccc1`, the AC50 is 7.94 µM [rising, partial curve] under setting [2] and 14.1 µM [rising, partial curve] under setting [1]. Consider `Cc1cccc2sc(N(CCCN(C)C)C(=O)c3ccco3)nc12`, for which, under setting [2], the AC50 is 31.6 µM [falling, partial curve, poor fit].

With `CN(C)c1cc2c(cc1NS(=O)(=O)c1ccccc1)n(C)c(=O)n2C`, under setting [2], the AC50 is 0.02 µM [rising, full curve, poor fit]. Consider `O=C(C1CC1)N1CCc2cc(Br)cc(S(=O)(=O)NC3CCCCC3)c21`, for which the AC50 under setting [1] was 3.16 µM [rising, partial curve, poor fit]. Same read-out and setting: the result for `COCCn1c(C)cc(C(=O)CSc2nc(C)cc(C)c2C#N)c1C` reads 15.8 µM [rising, single point]; that for `CN1/C(=C\C(=O)Nc2ccc(Cl)cc2)C(C)(C)c2ccccc21`, 15.8 µM [rising, single point]. `CCOC(=O)c1ccc(NC(=O)CSc2nnc(-c3ccncc3)n2-c2ccccc2)cc1`: the concentration at half-maximal activity (AC50) under setting [2] was 0.0562 µM [falling, full curve, poor fit].

Turning to `COc1cccc(-c2nc3ccc([N+](=O)[O-])cc3o2)c1`, the AC50 is 0.398 µM [rising, full curve] under setting [2] and 0.631 µM [rising, full curve, poor fit] under setting [1]. In the case of `CCN(C(=O)CSc1nc2ccccc2n1Cc1ccccc1C#N)c1ccccc1`, under setting [2], the AC50 is 0.141 µM [falling, partial curve].

With `O=C(Nc1cccc(C(F)(F)F)c1)c1cccnc1NCCc1ccccc1`, the AC50 under setting [2] is 14.1 µM [rising, single point] and the AC50 under setting [1] is 12.6 µM [rising, partial curve]. `Cc1ccc2c(C)c(C(=O)NCC(c3ccc(Cl)cc3)N3CCOCC3)oc2c1` (centres undefined): the AC50 is, setting by setting: under setting [2], 3.16 µM [rising, partial curve, poor fit]; under setting [1], 20 µM [rising, partial curve, poor fit].

For `O=C(N/C=N/OCc1ccc(Cl)cc1Cl)NOCc1c(Cl)cccc1Cl`, the AC50 under setting [1] was 0.891 µM [rising, single point].

On to `O=C(Cc1cn(Cc2cccc(Cl)c2)c2ccccc12)N1CCCC1`, for which the AC50 under setting [2] was 12.6 µM [rising, partial curve] and the AC50 under setting [1] is 35.5 µM [rising, partial curve]. Take `CNC(=S)N1CCn2cccc2C1c1cc(OC)c(OC)c(OC)c1` (centres undefined): the AC50 under setting [2] was 1.26 µM [rising, full curve, poor fit]. On to `Cc1ccc(N2C(=O)C3CCC(C)(C2=O)C3(C)C)cc1C` (centres undefined), for which the AC50 under setting [1] is 0.02 µM [falling, full curve, poor fit]. For the compound `CCOC(=O)N1CCC(Nc2cc(C)nc3c(-c4ccccc4OC)c(C)nn23)CC1`, the AC50 was 28.2 µM [rising, partial curve, poor fit] under setting [2] and 35.5 µM [rising, partial curve] under setting [1]. For the compound `C[C@@H]1O[C@H](O[C@@H]2[C@H](C)O[C@H](O[C@@H]3[C@H](C)O[C@H](O[C@H]4CC[C@]5(C)[C@@H](CC[C@@H]6[C@H]5C[C@@H](O)[C@]5(C)[C@@H](C7=CC(=O)OC7)CC[C@]65O)C4)C[C@@H]3O)C[C@@H]2O)C[C@H](O)[C@@H]1O`, the AC50 is 0.251 µM [falling, full curve] under setting [2] and 0.02 µM [falling, full curve] under setting [1]. With `CCOC(=O)c1sc(NC(=O)CCN2CCCCCC2)c(C(=O)OCC)c1C`, the AC50 reads like this: under setting [2], 0.126 µM [rising, full curve, poor fit]; under setting [1], 0.1 µM [rising, full curve]. Take `COc1ccccc1CNc1ncncc1-c1ccccc1OC`: under setting [2], the AC50 was 7.08 µM [falling, partial curve]. Consider `CCOc1ccc(S(=O)(=O)Nc2ccc3c(c2)OCO3)c2cccnc12`, for which the AC50 reads like this: under setting [2], 14.1 µM [rising, single point]; under setting [1], 15.8 µM [rising, partial curve, poor fit]. On to `CCN(CC)CC(=O)Nc1sc(C)c(C)c1C(=O)c1ccc(C)cc1`, for which, under setting [2], the AC50 is 12.6 µM [falling, partial curve].

For `CC#C[C@@]1(O)CC[C@H]2[C@@H]3CCC4=CC(=O)CCC4=C3[C@H](c3ccc(N(C)C)cc3)C[C@]21C`, the AC50 is 5.62 µM [falling, partial curve, poor fit] under setting [2] and 4.47 µM [falling, partial curve] under setting [1]. With `COc1cccc(CNC(=O)c2ccc3c(c2)N(Cc2ccc(F)cc2Cl)C(=O)c2ccccc2S3)c1`, the AC50 under setting [1] was 1.12 µM [falling, single point].

As to `COc1ccccc1N1CCN(Cc2cc(Br)c(O)c3ncccc23)CC1`, under setting [1], the AC50 was 2.82 µM [rising, full curve]. Consider `O=C(NCCN1CCOCC1)c1ccc(Cl)c(S(=O)(=O)N2CCCCCC2)c1`, for which the AC50 by setting is: under setting [2], 12.6 µM [rising, partial curve]; under setting [1], 15.8 µM [rising, partial curve].

Take `COc1c(O)cc2c(c1O)[C@@H]1O[C@@H](CO)[C@@H](O)[C@@H](O)[C@@H]1OC2=O`: the AC50 runs as follows: under setting [2], 0.00251 µM [falling, full curve, poor fit]; under setting [1], 0.00251 µM [falling, full curve, poor fit].

For `C=CCc1ccccc1OCC(=O)N/N=C/c1ccc(OC(C)=O)cc1OC(C)=O`, the AC50 is 7.08 µM [rising, partial curve, poor fit] under setting [2] and 12.6 µM [rising, partial curve] under setting [1]. In the case of `CCOCCCNC(=O)CCCC1=NS(=O)(=O)c2ccccc2N1`, the AC50 is 0.794 µM [falling, single point] under setting [2] and 0.0562 µM [falling, full curve, poor fit] under setting [1]. `CCOC(=O)CSc1nc2ccc(N3CCOCC3)cc2c(=O)n1Cc1ccc2c(c1)OCO2`: under setting [2], the AC50 is 17.8 µM [rising, partial curve, poor fit]. On to `CCOc1cc(S(=O)(=O)N2CCN(Cc3ccccc3)CC2)ccc1Br`, for which the AC50 is 7.08 µM [rising, full curve] under setting [2] and 14.1 µM [rising, partial curve] under setting [1]. As to `C=CCN(CC=C)S(=O)(=O)c1ccc(C(=O)Nc2nnc(CSC)o2)cc1`, the AC50 under setting [2] was 0.112 µM [falling, full curve]. Turning to `Cc1ccccc1/C=C/C1=NCCN1`, the AC50 reads like this: under setting [2], 17.8 µM [falling, partial curve]; under setting [1], 12.6 µM [rising, partial curve]. Take `COc1ccc(Cl)cc1NC(=O)CSc1nnc2[nH]c(=O)cc(-c3ccccc3)n12`: the AC50 under setting [2] is 20 µM [falling, single point]. For the compound `Cc1ccc2[nH]c(=O)c3cc(C(=O)N(CCCOC(C)C)Cc4ccco4)sc3c2c1`, the AC50 runs as follows: under setting [2], 15.8 µM [rising, single point]; under setting [1], 17.8 µM [rising, single point]. Take `COc1ccc(C2=NCCc3cc(OC)c(OC)cc32)cc1`: under setting [1], the AC50 is 0.178 µM [rising, full curve, poor fit]. On the same count and under the same terms, the result for `C/C(=N\NC(=O)COc1ccc(C(C)(C)C)cc1)c1ccc2c(c1)OCCO2` reads 31.6 µM [rising, single point]. As for `Cc1cccc(C(=O)NC(=O)Nc2c(C)cc(C)nc2C)c1`, the AC50 under setting [2] was 0.00316 µM [falling, full curve, poor fit] and the AC50 under setting [1] is 0.00316 µM [falling, full curve, poor fit].

Turning to `COc1ccccc1N1CCN(C(=O)c2cc(-c3cccc(Cl)c3)on2)CC1`, under setting [2], the AC50 is 35.5 µM [rising, single point].

In the case of `COC(=O)c1c(-c2cccs2)csc1NC(=O)c1cccnc1`, the AC50 runs as follows: under setting [2], 11.2 µM [rising, partial curve]; under setting [1], 11.2 µM [rising, single point]. For the compound `CN1CCN(S(=O)(=O)c2cccc(C(=O)Nc3sc4c(c3C(N)=O)CCCC4)c2)CC1`, under setting [2], the AC50 was 11.2 µM [rising, partial curve]. Regarding `Cc1ccc(/C=C/C(=O)NC2=NCCS2)cc1`, under setting [2], the AC50 is 0.02 µM [falling, full curve, poor fit].

In the case of `Cc1cccc2sc(NC(=O)c3ccc(NS(=O)(=O)c4cccs4)cc3)nc12`, the AC50 under setting [2] is 0.631 µM [rising, full curve, poor fit] and the AC50 under setting [1] was 14.1 µM [rising, partial curve].

As for `COc1cccc(OCCc2c(C)n[nH]c2C)c1`, the AC50 runs as follows: under setting [2], 14.1 µM [rising, partial curve]; under setting [1], 17.8 µM [rising, single point]. For the compound `COc1ccc(N)cc1-n1c(C)ccc1C`, the AC50 under setting [1] was 17.8 µM [falling, single point]. With `CS(=O)(=O)Oc1ccc2c(c1)O/C(=C\C=C\c1ccccc1)C2=O`, the concentration at half-maximal activity (AC50) is 3.98 µM [rising, full curve, poor fit] under setting [2] and 6.31 µM [rising, single point] under setting [1]. Regarding `CCOC(=O)c1c(C)[nH]c(C(=O)COC(=O)c2cnc(C)cn2)c1C`, the AC50 under setting [1] was 12.6 µM [falling, partial curve, poor fit]. In the case of `COc1cccc(N2CCN(C(=O)c3nc(-c4ccc(Cl)cc4)n4c3CCCCC4)CC2)c1`, the AC50 under setting [1] is 15.8 µM [rising, single point]. As for `Cc1nc(N2CCCC2)ncc1C(=O)NCc1ccccc1Cl`, the AC50 under setting [2] is 0.891 µM [rising, full curve, poor fit]. Take `CCc1nnc2n1N(C(C)=O)C(c1ccc(C(C)(C)C)cc1)=C(C(C)=O)S2`: the AC50 under setting [2] was 31.6 µM [falling, single point] and the AC50 under setting [1] is 35.5 µM [falling, single point].

The record behind these values is PubChem BioAssay AID1487 (National Center for Advancing Translational Sciences (NCATS), 2009).
